{
  "sequences": {"note": "Chains of the proteins cited; added tags and fusions are not shown. Residues count along the entry.", "UniProt P19438, residues 30-455": "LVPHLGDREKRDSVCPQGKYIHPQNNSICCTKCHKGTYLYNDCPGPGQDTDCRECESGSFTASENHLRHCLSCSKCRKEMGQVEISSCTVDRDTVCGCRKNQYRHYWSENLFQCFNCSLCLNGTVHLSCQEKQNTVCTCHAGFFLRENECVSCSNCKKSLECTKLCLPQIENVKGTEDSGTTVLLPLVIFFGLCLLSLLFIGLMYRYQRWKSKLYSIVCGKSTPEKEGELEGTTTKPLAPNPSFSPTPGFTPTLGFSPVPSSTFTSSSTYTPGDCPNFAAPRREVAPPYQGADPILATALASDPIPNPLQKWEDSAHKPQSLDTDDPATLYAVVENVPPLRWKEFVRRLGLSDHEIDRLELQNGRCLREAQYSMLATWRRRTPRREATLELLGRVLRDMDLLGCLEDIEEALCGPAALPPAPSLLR"},
  "source": "paper PMC10688137",
  "target": "T1, GST-tagged SCEL recombinant protein (human) (UniProt O95171)",
  "T1 sequence": "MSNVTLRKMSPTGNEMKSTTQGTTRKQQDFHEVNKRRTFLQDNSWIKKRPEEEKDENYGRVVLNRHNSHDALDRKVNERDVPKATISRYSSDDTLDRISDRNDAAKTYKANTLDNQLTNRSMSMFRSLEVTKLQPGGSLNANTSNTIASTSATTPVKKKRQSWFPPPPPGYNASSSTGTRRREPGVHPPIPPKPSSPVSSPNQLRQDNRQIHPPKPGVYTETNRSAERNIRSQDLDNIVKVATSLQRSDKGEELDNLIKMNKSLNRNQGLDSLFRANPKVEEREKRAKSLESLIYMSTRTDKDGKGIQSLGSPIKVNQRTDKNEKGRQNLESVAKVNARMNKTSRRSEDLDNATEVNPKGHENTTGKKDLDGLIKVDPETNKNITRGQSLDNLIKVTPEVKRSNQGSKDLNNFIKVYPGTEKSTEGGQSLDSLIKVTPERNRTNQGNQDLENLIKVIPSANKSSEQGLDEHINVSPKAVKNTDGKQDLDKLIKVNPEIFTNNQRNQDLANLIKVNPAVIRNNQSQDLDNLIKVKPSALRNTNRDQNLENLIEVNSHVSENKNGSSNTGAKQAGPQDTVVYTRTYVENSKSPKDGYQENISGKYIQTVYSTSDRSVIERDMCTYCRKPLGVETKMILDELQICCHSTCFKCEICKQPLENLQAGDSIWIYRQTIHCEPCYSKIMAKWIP",
  "experiment": "pull-down; 5 ug purified GST-SCEL on Glutathione Sepharose 4B; 50 uL beads in 500 uL control lysate or His-tagged TNFR1-expressing cell lysate (25 mM Tris-HCl, 150 mM NaCl, 10% glycerol, 1% NP40) at 4 C overnight; western blotting; only the target purified",
  "note": "No constants are given. Whether binding was seen depends on the method and setting. In cells and extracts the contact can be indirect. Some binding calls cover weakened binding; strength is not graded here. Sequences can lack the tags named with a protein.",
  "data": [
    {"substance": "His-tagged TNFR1 (from UniProt P19438 30-455) (receptor)", "values": [
      {"measurement": "binding", "value": "binds"}
    ]}
  ]
}
